The exact form of at least one protein or probe is not confirmed. Negatives hold for the conditions tested. Protein sequences can lack the tags named with them.
Target: T1, EL222 (14-222) wild type (Erythrobacter litoralis) (UniProt Q2NB98)
T1 sequence: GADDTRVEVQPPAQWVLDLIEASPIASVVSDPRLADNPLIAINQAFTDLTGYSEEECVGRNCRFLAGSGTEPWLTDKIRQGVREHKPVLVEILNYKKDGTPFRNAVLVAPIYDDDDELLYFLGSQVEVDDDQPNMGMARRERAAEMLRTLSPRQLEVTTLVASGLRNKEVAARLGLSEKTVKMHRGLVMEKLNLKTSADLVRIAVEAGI
Test: EMSA
Settings: light; contains half of motif; purified recombinant protein; protein details: His6-Gβ1 (pHis6-Gβ1-Parallel1); label: 5'-32P; variant of Clone-1

Sequence: TCTACGTTATAGGTAGCCTT (double strand) [C1-1]
- binding result: no binding

Sequence: TTTAGTCCATGCTGATTCGT (double strand) [C1-3]
- binding result: no binding

From patent publication US20140325692, “BLUE-LIGHT INDUCIBLE SYSTEM FOR GENE EXPRESSION” (BOARD OF REGENTS, THE UNIVERSITY OF TEXAS SYSTEM, published 2014)
